No constants are given. Whether binding was seen depends on the method and setting. In cells and extracts the contact can be indirect. Some results given as binding are weak or reduced against the parent protein; the word gives no strength.

By UniProt entry, the sequences of proteins in these tests, tags left out.
UniProt Q96MN2: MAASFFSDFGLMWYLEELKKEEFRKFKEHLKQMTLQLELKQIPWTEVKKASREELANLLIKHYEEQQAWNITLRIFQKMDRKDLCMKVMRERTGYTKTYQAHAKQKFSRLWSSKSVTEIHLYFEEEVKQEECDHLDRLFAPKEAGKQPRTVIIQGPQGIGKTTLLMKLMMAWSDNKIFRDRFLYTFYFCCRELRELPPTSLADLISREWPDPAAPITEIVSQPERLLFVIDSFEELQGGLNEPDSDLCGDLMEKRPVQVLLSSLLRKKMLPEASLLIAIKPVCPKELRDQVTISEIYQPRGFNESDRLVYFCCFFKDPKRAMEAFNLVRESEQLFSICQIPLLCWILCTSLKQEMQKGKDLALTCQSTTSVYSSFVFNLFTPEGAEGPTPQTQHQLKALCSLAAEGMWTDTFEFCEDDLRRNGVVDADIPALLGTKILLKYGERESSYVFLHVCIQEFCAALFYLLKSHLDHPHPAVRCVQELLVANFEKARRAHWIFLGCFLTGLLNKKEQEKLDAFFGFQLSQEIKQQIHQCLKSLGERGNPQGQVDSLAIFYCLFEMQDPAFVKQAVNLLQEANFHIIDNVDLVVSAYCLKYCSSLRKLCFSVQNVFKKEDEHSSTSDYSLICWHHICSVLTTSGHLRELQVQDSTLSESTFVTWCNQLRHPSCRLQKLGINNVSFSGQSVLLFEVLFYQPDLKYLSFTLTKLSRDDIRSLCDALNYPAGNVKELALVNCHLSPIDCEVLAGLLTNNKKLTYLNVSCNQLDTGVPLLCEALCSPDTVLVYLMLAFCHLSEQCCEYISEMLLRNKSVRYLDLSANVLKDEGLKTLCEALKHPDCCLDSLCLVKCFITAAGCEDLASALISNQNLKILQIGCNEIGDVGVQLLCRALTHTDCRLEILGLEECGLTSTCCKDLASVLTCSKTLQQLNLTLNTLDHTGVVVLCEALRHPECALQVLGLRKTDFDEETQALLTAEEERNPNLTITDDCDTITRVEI

Experiment [1] addresses T1, TBK1 S527A mutant (human) (UniProt Q9UHD2).
T1 sequence: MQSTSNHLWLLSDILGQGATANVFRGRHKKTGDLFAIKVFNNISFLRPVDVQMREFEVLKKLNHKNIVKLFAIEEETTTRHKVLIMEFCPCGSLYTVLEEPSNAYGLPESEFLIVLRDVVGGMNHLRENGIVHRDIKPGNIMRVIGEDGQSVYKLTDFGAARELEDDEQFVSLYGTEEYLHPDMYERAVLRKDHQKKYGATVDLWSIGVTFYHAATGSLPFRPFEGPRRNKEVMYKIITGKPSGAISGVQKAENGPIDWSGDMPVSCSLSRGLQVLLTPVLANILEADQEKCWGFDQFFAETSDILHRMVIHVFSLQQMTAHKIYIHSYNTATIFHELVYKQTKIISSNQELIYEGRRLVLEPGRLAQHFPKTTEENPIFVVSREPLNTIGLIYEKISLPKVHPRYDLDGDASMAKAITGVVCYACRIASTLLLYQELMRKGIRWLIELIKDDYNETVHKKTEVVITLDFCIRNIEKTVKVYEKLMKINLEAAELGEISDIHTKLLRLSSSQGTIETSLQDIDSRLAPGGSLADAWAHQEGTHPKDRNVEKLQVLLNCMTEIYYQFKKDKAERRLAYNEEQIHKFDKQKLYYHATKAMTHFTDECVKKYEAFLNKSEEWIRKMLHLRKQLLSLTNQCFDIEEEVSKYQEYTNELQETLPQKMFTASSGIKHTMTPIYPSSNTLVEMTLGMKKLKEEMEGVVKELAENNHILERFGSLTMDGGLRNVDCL
The experiment in a line: co-IP.

For experiment [2], the target named is T2, TBK1 phosphorylated at Ser527 by DYRK2 (human) (UniProt Q9UHD2).
T2 sequence (chain, phosphoserine at 527 (by DYRK2)): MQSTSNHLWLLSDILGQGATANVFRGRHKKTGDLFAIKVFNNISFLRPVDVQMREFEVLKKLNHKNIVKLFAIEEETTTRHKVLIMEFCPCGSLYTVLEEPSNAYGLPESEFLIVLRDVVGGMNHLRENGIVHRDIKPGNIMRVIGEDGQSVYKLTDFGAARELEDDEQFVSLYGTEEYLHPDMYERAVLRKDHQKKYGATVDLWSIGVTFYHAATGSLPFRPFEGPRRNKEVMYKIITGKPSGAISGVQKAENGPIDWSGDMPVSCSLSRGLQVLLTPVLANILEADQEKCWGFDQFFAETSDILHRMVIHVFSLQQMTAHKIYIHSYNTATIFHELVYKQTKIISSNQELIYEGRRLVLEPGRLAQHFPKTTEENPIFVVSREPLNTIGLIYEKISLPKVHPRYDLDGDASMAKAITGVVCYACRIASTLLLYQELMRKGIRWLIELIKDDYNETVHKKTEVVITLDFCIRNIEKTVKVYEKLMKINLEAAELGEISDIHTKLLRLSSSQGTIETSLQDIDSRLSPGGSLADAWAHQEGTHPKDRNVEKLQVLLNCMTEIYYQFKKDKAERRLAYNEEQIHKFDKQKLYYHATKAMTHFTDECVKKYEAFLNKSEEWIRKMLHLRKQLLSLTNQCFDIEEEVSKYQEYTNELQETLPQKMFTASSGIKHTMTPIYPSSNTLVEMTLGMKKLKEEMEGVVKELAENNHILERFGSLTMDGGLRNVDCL
Description: co-IP; 293 cells transiently transfected with HA- and Flag-tagged plasmids; lysis in 20 mM Tris pH 7.5, 150 mM NaCl, 1% Triton, 1 mM EDTA; indicated antibody (anti-Flag in Fig 5B, 5D) or control IgG with protein G agarose, 4 h at 4°C; washes with 0.5 M NaCl; immunoblot with anti-HA or anti-Flag; Fig 6E with MG132, with or without overexpressed DYRK2.

For experiment [3], the target named is T3, DYRK2 (endogenous) (human (endogenous in 293)) (UniProt Q92630).
T3 sequence: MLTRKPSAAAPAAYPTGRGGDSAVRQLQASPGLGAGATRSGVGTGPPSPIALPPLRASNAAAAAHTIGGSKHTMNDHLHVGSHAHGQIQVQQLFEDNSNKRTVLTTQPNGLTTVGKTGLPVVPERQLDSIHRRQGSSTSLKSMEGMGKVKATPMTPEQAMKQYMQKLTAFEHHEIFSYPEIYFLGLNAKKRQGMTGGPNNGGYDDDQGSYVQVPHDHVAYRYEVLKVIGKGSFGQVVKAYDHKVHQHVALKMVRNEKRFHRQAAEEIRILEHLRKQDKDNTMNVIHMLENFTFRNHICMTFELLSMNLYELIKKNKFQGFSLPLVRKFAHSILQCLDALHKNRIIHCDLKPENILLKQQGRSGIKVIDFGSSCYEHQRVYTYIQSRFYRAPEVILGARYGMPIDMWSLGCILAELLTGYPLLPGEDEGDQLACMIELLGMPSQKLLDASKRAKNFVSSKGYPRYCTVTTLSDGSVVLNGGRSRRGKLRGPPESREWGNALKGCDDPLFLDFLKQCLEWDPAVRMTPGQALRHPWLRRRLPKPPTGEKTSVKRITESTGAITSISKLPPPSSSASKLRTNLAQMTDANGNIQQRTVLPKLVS
The experiment in a line: co-IP; endogenous proteins; untransfected 293 cells treated with MG132 and infected with SeV, 8 to 12 h after infection; precipitated with anti-DYRK2 antibody or preimmune serum, blotted with anti-TBK1.

Take NLRP4 (from UniProt Q96MN2 1-994): the binding entry in experiment [1] is recorded as “no binding”; in experiment [2], “binds”.

B1: TBK1 (endogenous) (enzyme, UniProt Q9UHD2 1-729)
chain: MQSTSNHLWLLSDILGQGATANVFRGRHKKTGDLFAIKVFNNISFLRPVDVQMREFEVLKKLNHKNIVKLFAIEEETTTRHKVLIMEFCPCGSLYTVLEEPSNAYGLPESEFLIVLRDVVGGMNHLRENGIVHRDIKPGNIMRVIGEDGQSVYKLTDFGAARELEDDEQFVSLYGTEEYLHPDMYERAVLRKDHQKKYGATVDLWSIGVTFYHAATGSLPFRPFEGPRRNKEVMYKIITGKPSGAISGVQKAENGPIDWSGDMPVSCSLSRGLQVLLTPVLANILEADQEKCWGFDQFFAETSDILHRMVIHVFSLQQMTAHKIYIHSYNTATIFHELVYKQTKIISSNQELIYEGRRLVLEPGRLAQHFPKTTEENPIFVVSREPLNTIGLIYEKISLPKVHPRYDLDGDASMAKAITGVVCYACRIASTLLLYQELMRKGIRWLIELIKDDYNETVHKKTEVVITLDFCIRNIEKTVKVYEKLMKINLEAAELGEISDIHTKLLRLSSSQGTIETSLQDIDSRLSPGGSLADAWAHQEGTHPKDRNVEKLQVLLNCMTEIYYQFKKDKAERRLAYNEEQIHKFDKQKLYYHATKAMTHFTDECVKKYEAFLNKSEEWIRKMLHLRKQLLSLTNQCFDIEEEVSKYQEYTNELQETLPQKMFTASSGIKHTMTPIYPSSNTLVEMTLGMKKLKEEMEGVVKELAENNHILERFGSLTMDGGLRNVDCL
Take B1: the binding result in experiment [3] is recorded as “binds”.

The values above are taken from article PMC4583546.
